In the supplement of paper PMC10849652:
The other results are listed elsewhere or left out.

Amino acid sequences for entries named in this document (tags omitted). A change or cut given only in a name is not applied to a line headed by its entry.
UniProt Q9H410: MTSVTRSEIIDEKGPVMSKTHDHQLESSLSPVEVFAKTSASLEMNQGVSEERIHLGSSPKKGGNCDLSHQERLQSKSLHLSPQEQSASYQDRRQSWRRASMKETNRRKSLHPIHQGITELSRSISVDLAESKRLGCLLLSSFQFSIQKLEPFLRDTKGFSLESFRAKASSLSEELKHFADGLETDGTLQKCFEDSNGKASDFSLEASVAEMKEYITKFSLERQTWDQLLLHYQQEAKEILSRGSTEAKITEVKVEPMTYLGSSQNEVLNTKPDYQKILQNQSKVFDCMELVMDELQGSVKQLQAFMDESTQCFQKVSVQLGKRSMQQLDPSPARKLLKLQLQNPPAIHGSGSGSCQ
UniProt Q9Y6G9, whole entry, looked up: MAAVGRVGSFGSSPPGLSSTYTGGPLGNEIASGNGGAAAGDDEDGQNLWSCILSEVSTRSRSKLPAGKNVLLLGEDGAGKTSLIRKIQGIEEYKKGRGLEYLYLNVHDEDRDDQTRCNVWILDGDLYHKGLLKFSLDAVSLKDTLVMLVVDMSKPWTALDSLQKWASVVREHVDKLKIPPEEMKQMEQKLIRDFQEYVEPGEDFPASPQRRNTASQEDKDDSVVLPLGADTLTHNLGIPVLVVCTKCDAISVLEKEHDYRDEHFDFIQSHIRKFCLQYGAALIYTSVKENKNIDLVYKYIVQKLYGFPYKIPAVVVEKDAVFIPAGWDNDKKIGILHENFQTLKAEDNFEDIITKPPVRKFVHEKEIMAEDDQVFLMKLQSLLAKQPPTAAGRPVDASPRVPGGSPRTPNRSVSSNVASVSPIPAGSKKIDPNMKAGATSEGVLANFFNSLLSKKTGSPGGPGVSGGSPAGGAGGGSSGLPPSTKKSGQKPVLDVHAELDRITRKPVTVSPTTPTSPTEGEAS
UniProt Q8N6R0: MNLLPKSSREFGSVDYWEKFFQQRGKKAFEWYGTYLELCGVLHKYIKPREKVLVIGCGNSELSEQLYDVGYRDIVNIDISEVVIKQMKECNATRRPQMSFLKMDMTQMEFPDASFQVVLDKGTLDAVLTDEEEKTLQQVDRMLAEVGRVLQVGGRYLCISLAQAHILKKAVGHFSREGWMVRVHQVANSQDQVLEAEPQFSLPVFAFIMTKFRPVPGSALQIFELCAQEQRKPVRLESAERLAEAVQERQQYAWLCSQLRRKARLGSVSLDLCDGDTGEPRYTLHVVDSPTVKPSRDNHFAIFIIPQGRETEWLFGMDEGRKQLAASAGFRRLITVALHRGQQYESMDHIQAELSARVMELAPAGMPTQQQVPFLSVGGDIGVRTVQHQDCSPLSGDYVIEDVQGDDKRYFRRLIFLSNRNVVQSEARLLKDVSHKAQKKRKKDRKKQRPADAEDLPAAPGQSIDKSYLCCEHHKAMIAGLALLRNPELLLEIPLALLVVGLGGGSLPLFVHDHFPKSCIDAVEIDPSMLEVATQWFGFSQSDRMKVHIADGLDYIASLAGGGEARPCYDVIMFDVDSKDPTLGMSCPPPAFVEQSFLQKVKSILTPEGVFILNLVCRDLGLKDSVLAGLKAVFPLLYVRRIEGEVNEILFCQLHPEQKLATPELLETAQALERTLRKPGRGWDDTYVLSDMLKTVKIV
UniProt O60739, whole entry, looked up: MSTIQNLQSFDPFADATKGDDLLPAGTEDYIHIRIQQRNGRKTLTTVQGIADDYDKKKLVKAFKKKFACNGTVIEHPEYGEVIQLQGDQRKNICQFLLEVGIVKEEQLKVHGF
UniProt Q8N9N8: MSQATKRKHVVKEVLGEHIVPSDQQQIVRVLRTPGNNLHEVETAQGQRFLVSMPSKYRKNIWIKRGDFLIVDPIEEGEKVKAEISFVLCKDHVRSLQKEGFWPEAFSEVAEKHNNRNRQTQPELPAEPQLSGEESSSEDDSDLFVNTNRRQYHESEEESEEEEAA
UniProt O60869: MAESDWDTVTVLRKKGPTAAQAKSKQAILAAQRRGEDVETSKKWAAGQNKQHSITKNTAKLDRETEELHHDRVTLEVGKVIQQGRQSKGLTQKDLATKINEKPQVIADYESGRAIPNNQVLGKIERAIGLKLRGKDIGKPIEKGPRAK
UniProt O75923: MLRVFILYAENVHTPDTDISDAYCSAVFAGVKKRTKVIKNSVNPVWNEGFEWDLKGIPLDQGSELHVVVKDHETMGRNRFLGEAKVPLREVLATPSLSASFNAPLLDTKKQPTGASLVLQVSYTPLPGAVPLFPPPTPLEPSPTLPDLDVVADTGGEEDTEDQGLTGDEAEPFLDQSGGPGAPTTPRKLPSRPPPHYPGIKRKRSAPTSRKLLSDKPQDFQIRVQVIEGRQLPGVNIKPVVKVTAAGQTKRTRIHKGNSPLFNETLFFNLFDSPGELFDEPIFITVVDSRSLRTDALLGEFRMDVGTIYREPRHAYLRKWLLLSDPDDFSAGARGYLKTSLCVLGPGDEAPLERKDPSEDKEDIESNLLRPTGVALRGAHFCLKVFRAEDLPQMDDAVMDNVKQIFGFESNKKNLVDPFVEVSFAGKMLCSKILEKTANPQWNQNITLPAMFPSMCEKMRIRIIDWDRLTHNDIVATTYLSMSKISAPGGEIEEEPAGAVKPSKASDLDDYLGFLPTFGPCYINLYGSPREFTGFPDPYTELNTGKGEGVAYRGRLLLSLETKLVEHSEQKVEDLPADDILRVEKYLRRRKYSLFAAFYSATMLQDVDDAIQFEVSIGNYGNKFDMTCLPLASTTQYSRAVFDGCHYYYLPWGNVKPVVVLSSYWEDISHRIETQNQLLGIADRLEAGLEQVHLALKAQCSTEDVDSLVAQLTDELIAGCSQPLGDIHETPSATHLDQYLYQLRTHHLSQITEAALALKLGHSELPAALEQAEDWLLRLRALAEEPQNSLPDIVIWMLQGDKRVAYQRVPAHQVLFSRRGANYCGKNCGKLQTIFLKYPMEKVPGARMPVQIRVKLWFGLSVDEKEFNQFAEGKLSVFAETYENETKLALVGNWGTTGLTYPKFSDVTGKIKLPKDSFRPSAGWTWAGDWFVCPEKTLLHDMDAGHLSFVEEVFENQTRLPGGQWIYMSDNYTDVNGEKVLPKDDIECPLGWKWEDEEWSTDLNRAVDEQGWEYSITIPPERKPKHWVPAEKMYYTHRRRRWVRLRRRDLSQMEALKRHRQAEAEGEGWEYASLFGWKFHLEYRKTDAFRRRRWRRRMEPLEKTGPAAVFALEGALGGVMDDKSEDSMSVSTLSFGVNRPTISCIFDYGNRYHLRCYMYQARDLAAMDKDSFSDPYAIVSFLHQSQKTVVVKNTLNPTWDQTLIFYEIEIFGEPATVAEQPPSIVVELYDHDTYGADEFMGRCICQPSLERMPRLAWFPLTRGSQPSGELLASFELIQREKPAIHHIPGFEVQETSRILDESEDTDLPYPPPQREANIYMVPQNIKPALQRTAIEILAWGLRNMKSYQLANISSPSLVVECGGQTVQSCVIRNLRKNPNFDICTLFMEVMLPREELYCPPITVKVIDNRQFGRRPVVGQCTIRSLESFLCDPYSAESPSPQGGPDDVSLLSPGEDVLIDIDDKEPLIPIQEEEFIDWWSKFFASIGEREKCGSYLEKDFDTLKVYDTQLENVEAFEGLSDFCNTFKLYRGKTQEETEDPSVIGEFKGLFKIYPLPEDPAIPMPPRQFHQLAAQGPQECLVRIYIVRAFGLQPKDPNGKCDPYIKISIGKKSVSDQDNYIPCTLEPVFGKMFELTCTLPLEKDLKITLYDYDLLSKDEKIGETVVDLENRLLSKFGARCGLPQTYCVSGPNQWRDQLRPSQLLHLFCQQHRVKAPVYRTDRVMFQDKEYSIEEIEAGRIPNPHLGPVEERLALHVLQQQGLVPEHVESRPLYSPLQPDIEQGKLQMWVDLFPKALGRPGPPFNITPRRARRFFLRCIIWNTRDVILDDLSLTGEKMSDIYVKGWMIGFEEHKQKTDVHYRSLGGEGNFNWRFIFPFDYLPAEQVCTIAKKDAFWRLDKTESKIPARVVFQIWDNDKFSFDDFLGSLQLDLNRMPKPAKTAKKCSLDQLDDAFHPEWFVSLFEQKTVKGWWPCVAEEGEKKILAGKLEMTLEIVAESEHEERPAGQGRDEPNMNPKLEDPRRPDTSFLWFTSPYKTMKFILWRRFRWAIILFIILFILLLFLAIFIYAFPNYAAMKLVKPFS
UniProt P63167, whole entry, looked up: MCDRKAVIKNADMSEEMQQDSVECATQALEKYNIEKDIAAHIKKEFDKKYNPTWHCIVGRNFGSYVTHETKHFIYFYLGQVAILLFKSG
UniProt O00716: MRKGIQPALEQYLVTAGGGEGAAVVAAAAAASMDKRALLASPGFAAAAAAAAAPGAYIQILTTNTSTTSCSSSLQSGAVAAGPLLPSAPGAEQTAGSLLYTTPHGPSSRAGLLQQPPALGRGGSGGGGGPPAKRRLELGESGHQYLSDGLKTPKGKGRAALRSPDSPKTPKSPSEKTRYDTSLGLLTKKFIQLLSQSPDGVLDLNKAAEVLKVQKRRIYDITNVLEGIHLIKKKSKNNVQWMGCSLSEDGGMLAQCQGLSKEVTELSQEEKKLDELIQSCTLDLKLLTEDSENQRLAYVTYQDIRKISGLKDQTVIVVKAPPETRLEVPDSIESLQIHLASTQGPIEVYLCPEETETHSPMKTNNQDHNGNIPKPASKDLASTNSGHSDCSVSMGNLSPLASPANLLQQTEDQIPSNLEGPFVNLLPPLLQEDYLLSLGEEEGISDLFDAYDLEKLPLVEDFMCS
UniProt Q9H8V3: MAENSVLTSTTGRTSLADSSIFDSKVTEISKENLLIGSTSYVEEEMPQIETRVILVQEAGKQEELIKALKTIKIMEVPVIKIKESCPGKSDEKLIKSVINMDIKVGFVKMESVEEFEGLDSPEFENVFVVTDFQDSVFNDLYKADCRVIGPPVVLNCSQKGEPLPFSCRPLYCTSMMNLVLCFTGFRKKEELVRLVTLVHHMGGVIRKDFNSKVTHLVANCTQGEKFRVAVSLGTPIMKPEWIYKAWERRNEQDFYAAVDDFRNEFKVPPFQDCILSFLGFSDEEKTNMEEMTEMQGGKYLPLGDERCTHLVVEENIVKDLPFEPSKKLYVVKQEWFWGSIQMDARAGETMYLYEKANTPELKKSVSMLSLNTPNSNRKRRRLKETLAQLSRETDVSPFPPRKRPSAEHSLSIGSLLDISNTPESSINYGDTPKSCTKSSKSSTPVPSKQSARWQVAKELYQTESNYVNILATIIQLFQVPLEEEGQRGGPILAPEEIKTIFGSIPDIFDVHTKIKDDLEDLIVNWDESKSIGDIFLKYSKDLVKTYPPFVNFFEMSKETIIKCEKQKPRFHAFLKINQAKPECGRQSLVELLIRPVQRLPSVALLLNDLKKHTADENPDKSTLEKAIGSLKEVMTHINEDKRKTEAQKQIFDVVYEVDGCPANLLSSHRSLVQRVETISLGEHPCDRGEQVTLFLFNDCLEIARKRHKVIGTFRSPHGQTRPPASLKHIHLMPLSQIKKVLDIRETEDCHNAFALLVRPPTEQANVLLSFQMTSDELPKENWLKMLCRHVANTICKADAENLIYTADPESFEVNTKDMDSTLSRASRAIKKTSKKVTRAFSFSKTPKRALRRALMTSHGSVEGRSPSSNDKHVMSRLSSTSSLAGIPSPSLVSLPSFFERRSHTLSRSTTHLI
UniProt P51452: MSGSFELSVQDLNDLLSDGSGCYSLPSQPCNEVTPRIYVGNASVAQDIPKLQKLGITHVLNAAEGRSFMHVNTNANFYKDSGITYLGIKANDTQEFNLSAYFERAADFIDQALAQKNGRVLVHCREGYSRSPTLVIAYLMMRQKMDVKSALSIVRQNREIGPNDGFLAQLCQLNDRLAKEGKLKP
UniProt Q96C19: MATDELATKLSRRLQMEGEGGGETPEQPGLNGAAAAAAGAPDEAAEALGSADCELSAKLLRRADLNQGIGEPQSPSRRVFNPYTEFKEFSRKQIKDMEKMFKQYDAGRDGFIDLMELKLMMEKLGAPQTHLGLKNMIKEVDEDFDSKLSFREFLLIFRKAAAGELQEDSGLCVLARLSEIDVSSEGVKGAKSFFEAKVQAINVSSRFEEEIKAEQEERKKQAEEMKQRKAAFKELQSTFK
UniProt O77932: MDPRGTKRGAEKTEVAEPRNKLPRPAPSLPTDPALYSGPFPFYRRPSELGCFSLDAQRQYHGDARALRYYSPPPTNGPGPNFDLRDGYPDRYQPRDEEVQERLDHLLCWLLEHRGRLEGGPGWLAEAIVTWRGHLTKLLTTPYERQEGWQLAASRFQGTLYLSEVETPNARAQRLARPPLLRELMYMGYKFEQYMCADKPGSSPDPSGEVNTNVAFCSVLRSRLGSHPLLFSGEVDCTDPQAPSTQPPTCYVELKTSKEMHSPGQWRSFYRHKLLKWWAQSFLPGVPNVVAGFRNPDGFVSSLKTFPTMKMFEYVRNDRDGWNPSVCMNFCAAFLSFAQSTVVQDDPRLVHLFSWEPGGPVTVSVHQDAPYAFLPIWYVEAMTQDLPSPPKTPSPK
UniProt Q96FJ2, whole entry, looked up: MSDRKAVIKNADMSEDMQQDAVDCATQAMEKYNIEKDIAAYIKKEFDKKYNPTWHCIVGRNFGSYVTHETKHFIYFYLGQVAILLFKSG

How the values were obtained:
Test in all cases: log2 fold change, soluble protein after heating vs DMSO (PISA); higher = thermal stabilisation; K562 lysate, 10 uM; active = over 0.2 and 3.5 SD of the protein, either way, in both replicates (recomputed)
erlotinib = compound: C#Cc1cccc(Nc2ncnc3cc(OCCOC)c(OCCOC)cc23)c1 [erlotinib]
Method in brief: (§1)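 Soluble protein was defined as the supernatant remaining after 21,000xg for 90 min, following pooling of heated aliquots and adjustment to 0.5% NP-40 at 4°C. Before that, crude K562 extract at 1 mg/mL protein in PBS pH 7.4 with 1 mM MgCl2 was treated with 10 μM compound for 30 min and heated for 3 min across 48°C-58°C. Quantification used TMTpro 16plex LC-MS/MS with channel sums equalised, and values are log-two fold changes in thermal stability relative to solvent controls from duplicates.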

[1] = compound: C/C(=N\NC(=O)C1=CC(=CC=C1)S(=O)(=O)N2CCOCC2)/C3=C(C=CC(=C3)Cl)O
Method in brief: as §1

[2] = compound: C1=CC(=CC=C1C2=NC3=C(N2)C=C(C=C3)C(=O)N)OC4=CC=C(C=C4)Cl
Method in brief: as §1

[3] = compound: C1=CC2=C(C=CC(=C2)/C=C\3/C(=O)NC(=NCC4=CC=CS4)S3)N=C1
Method in brief: as §1

[4] = compound: C1=CC2=NC=CN=C2C=C1/C=C/3\C(=O)NC(=O)S3
Method in brief: as §1

[5] = compound: C1=CC=C(C=C1)C2=NC(=C(N2)C3=CC=NC=C3)C4=CC(=C(C=C4)Cl)O
Method in brief: as §1

[6] = compound: C1=CC=C2C(=C1)C3=NNC4=CC=CC(=C43)C2=O
Method in brief: as §1

[7] = compound: C1CCN(C1)C(=O)NC2=CC=CC(=C2)NC3=NC=C(C(=N3)NCCC4=CN=CN4)Br
Method in brief: as §1

[8] = compound: C1CN(CCC1(CC2=CC=C(C=C2)Cl)N)C3=NC=NC4=C3C=CN4
Method in brief: as §1

IRAK-1-4 Inhibitor I = compound: C1COCCN1CCN2C3=CC=CC=C3N=C2NC(=O)C4=CC(=CC=C4)[N+](=O)[O-] [IRAK-1-4 Inhibitor I]
Method in brief: as §1

Measured: log2 fold change

EEF1D isoform 2 (UniProt P29692)
inactive: erlotinib -0.012 | [1] -0.012 | [2] 0.008 | [3] -0.031 | [4] -0.008 | [5] -0.019 | [6] -0.022 | [7] -0.009 | [8] 0.016 | IRAK-1-4 Inhibitor I 0.011

ECHS1 (UniProt P30084)
inactive: erlotinib 0.009 | [1] 0.006 | [2] -0.022 | [3] -0.009 | [4] 0.008 | [5] 0.007 | [6] 0.058 | [7] 0.002 | [8] 0.001 | IRAK-1-4 Inhibitor I -0.02

DPP8 (UniProt Q6V1X1)
inactive: erlotinib -0.018 | [1] 0.022 | [2] 0.077 | [3] 0.026 | [4] -0.046 | [5] 0.031 | [6] 0.237 | [7] -0.072 | [8] -0.071 | IRAK-1-4 Inhibitor I -0.037

DSN1 (UniProt Q9H410)
inactive: erlotinib -0.021 | [1] 0.03 | [2] 0.037 | [3] 0.014 | [4] 0.01 | [5] -0.025 | [6] 0.032 | [7] -0.034 | [8] -0.024 | IRAK-1-4 Inhibitor I 0.002

Taken from above (2 entries):
DPP8 (UniProt Q6V1X1)
inactive: erlotinib -0.018 | [1] 0.022 | [2] 0.077 | [3] 0.026 | [4] -0.046 | [5] 0.031 | [6] 0.237 | [7] -0.072 | [8] -0.071 | IRAK-1-4 Inhibitor I -0.037

DSN1 (UniProt Q9H410)
inactive: erlotinib -0.021 | [1] 0.03 | [2] 0.037 | [3] 0.014 | [4] 0.01 | [5] -0.025 | [6] 0.032 | [7] -0.034 | [8] -0.024 | IRAK-1-4 Inhibitor I 0.002

Next records.

DYNC1LI1 (UniProt Q9Y6G9)
inactive: erlotinib 0.001 | [1] 0.022 | [2] 0.007 | [3] 0.002 | [4] 0.009 | [5] 0.002 | [6] -0.03 | [7] -0.011 | [8] -0.01 | IRAK-1-4 Inhibitor I -0.006

EIF2A (UniProt Q9BY44)
inactive: erlotinib 0.003 | [1] 0.011 | [2] 0.03 | [3] -0.026 | [4] 0.008 | [5] -0.004 | [6] 0.024 | [7] -0.012 | [8] 0.014 | IRAK-1-4 Inhibitor I -0.006

EEF1AKNMT (UniProt Q8N6R0)
inactive: erlotinib 0.048 | [1] 0.029 | [2] -0.02 | [3] -0.039 | [4] 0.005 | [5] 0 | [6] -0.065 | [7] 0.011 | [8] 0.053 | IRAK-1-4 Inhibitor I -0.015

EIF1B (UniProt O60739)
inactive: erlotinib -0.032 | [1] -0.397 | [2] -0.153 | [3] 0.255 | [4] -0.132 | [5] 0.052 | [6] 0.16 | [7] -0.028 | [8] 0.103 | IRAK-1-4 Inhibitor I -0.093

EEF1AKMT4 (UniProt P0DPD7)
inactive: erlotinib 0.057 | [1] 0.097 | [2] 0.073 | [3] 0.025 | [4] 0.039 | [5] -0.021 | [6] -0.081 | [7] -0.019 | [8] 0.08 | IRAK-1-4 Inhibitor I 0.107

EBNA1BP2 (UniProt Q99848)
inactive: erlotinib -0.033 | [1] -0.031 | [2] -0.03 | [3] 0.011 | [4] -0.008 | [5] -0.005 | [6] 0.025 | [7] 0.028 | [8] -0.025 | IRAK-1-4 Inhibitor I -0.009

EIF1AD (UniProt Q8N9N8)
inactive: erlotinib 0.005 | [1] 0.005 | [2] 0.072 | [3] -0.051 | [4] -0.017 | [5] 0.02 | [6] 0.043 | [7] 0.018 | [8] -0.038 | IRAK-1-4 Inhibitor I 0.019

DYNC1I2 isoform 2 (UniProt Q13409)
inactive: erlotinib -0.012 | [1] -0.032 | [2] 0.108 | [3] -0.088 | [4] -0.127 | [5] -0.002 | [6] 0.055 | [7] 0.005 | [8] -0.006 | IRAK-1-4 Inhibitor I 0.01

ECHDC1 (UniProt Q9NTX5)
inactive: erlotinib -0.015 | [1] 0.007 | [2] 0.022 | [3] -0.032 | [4] -0.014 | [5] -0.001 | [6] 0.05 | [7] -0.003 | [8] 0.034 | IRAK-1-4 Inhibitor I -0.016

EDF1 (UniProt O60869)
inactive: erlotinib 0.013 | [1] 0.004 | [2] -0.001 | [3] -0.022 | [4] -0.002 | [5] 0.012 | [6] 0.021 | [7] 0.008 | [8] -0.006 | IRAK-1-4 Inhibitor I 0.031

DYSF isoform 13 (UniProt O75923)
inactive: erlotinib 0.161 | [1] -0.01 | [2] 0.137 | [3] 0.06 | [4] -0.034 | [5] 0.101 | [6] 0.031 | [7] 0.085 | [8] 0.176 | IRAK-1-4 Inhibitor I 0.025

DYNC2H1 isoform 2 (UniProt Q8NCM8)
inactive: erlotinib 0.005 | [1] 0.02 | [2] 0.001 | [3] 0.039 | [4] -0.033 | [5] -0.002 | [6] 0.101 | [7] 0.015 | [8] 0.085 | IRAK-1-4 Inhibitor I 0.011

DVL2 (UniProt O14641)
inactive: erlotinib 0.012 | [1] -0.028 | [2] 0.011 | [3] -0.015 | [4] 0.03 | [5] -0.055 | [6] -0.029 | [7] 0.001 | [8] 0.067 | IRAK-1-4 Inhibitor I -0.073

DYNLL1 (UniProt P63167)
inactive: erlotinib 0.021 | [1] 0.051 | [2] 0.046 | [3] 0 | [4] 0.017 | [5] -0.023 | [6] -0.031 | [7] 0.038 | [8] 0.076 | IRAK-1-4 Inhibitor I 0.017

E2F3 (UniProt O00716)
inactive: erlotinib -0.014 | [1] 0.093 | [2] -0.023 | [3] -0.032 | [4] -0.013 | [5] 0.039 | [6] 0.015 | [7] 0.005 | [8] 0.092 | IRAK-1-4 Inhibitor I 0.022

ECT2 (UniProt Q9H8V3)
inactive: erlotinib -0.016 | [1] 0.001 | [2] 0.386 | [3] 0.011 | [4] 0.044 | [5] 0.015 | [6] -0.09 | [7] -0.104 | [8] -0.1 | IRAK-1-4 Inhibitor I -0.049

DSG2 (UniProt Q14126)
inactive: erlotinib -0.018 | [1] 0.016 | [2] -0.023 | [3] -0.02 | [4] -0.004 | [5] -0.021 | [6] -0.019 | [7] -0.017 | [8] 0.009 | IRAK-1-4 Inhibitor I -0.037

EED, A0A5F9ZI63
inactive: erlotinib 0.019 | [1] 0.042 | [2] -0.033 | [3] 0.017 | [4] -0.019 | [5] -0.012 | [6] 0.003 | [7] 0.003 | [8] 0.023 | IRAK-1-4 Inhibitor I 0.021

ECSIT (UniProt Q9BQ95)
inactive: erlotinib -0.001 | [1] 0.032 | [2] 0.015 | [3] 0.088 | [4] -0.04 | [5] -0.068 | [6] -0.057 | [7] 0.026 | [8] 0.014 | IRAK-1-4 Inhibitor I 0.032

DUSP3 (UniProt P51452)
inactive: erlotinib 0.002 | [1] 0.033 | [2] 0 | [3] -0.02 | [4] -0.027 | [5] 0.013 | [6] -0.013 | [7] -0.007 | [8] 0.007 | IRAK-1-4 Inhibitor I -0.028

EEF1B2 (UniProt P24534)
inactive: erlotinib 0.009 | [1] -0.016 | [2] 0.009 | [3] -0.005 | [4] 0 | [5] 0.013 | [6] -0.016 | [7] 0.008 | [8] -0.006 | IRAK-1-4 Inhibitor I 0.014

DYNC1H1 (UniProt Q14204)
inactive: erlotinib 0.018 | [1] 0.015 | [2] 0.011 | [3] 0.028 | [4] -0.019 | [5] -0.004 | [6] -0.007 | [7] -0.006 | [8] 0.011 | IRAK-1-4 Inhibitor I -0.003

EFHD2 (UniProt Q96C19)
inactive: erlotinib -0.002 | [1] -0.003 | [2] 0.012 | [3] -0.014 | [4] 0.018 | [5] 0.009 | [6] 0.028 | [7] -0.008 | [8] 0.001 | IRAK-1-4 Inhibitor I 0.01

DXO (UniProt O77932)
inactive: erlotinib -0.028 | [1] -0.075 | [2] 0.019 | [3] -0.01 | [4] 0 | [5] 0.013 | [6] -0.038 | [7] 0.076 | [8] 0.019 | IRAK-1-4 Inhibitor I -0.242

DYNLL2 (UniProt Q96FJ2)
inactive: erlotinib -0.049 | [1] 0.029 | [2] -0.049 | [3] 0.008 | [4] 0.019 | [5] 0.027 | [6] -0.039 | [7] 0.016 | [8] 0.066 | IRAK-1-4 Inhibitor I 0.054

EEF2 (UniProt P13639)
inactive: erlotinib -0.009 | [1] -0.052 | [2] 0.005 | [3] -0.001 | [4] -0.011 | [5] 0 | [6] 0.007 | [7] 0.013 | [8] 0.001 | IRAK-1-4 Inhibitor I 0.001
